SMILES strings stand for the structures. The campaign covered roughly 1,200 compounds. Fewer than 10 were called active. The call rests on the fitted dose curve; in most records, active means well fitted curve in the direction sought with a large enough effect; inconclusive means small, poorly fitted or top-dose-only effect, or another doubt; inactive means no such curve, though single readings can be large or run the other way. The list shows a part of the results.

The test in a line: Confirmatory qHTS assay for inhibitors of Activation Induced Cytidine Deaminase (AID): UDG signals. Further: 0% is about no effect. Particulars: UDG coupled enzyme activity counter-screen; at 115 µM (top of the series) unless noted. The text has this:
Assay Provider (PI) Patricia Gearhart Ph.D.
National Institute on Aging
National Institute of Health (NIH), Bethesda, MD
Assay Provider (PI) Rahul Kohli Ph.D.
Perelman School of Medicine
University of Pennsylvania, Philadelphia, PA
Activation-Induced Deaminase (AID) is a cytosine deaminase which converts cytosine into uracil within stretches of ssDNA. The presence of uracil in DNA initiates a cascade of mutagenic DNA repair to introduce point mutations and DNA double strand breaks. Specific targeting of AID to the immunoglobulin heavy chain loci (Igh) promotes mutagenesis in the antibody variable region for somatic hypermutation (SHM) or switch regions leading to class switch recombination (CSR). However, AID also plays a role in accumulating unnecessary mutations across the genome. Mis-targeting of AID results in the initiation of tumor development and leads to greater drug resistance among cancer cells when continually expressed. To identify an AID inhibitor, a small molecule library will be screened in collaboration with NCATS core facility at NIH. To confirm biological function, inhibitors will be examined in an in vitro murine B-cell activation assay and subsequent secondary validation screens. Top molecules will be further screened to identify inhibitory efficacy against a wild type primary splenocytes assay. Using these approaches, we hope to identify a small molecule with great efficacy and low toxicity for use as a molecular probe to further characterize AID's intricacies, or even as a therapeutic.
A FRET based analysis of cytosine deamination, was developed to identify potential inhibitors of AID catalytic activity. This screen has two signal output, Read 1 evaluates the AID inhibition response. The second readout (Read 2) evaluates UDG response and is uses as a counterscreen to exclude false positive inhibitors. Inhibition in AID and inactivity in the UDG signal is the desired outcome for this assay.
SEQUENCE No. (e.g., 1, 2, 3, etc.); […] (e.g., Cells, Incubation, Reagent, etc.); VALUE; DESCRIPTION
1a; Reagent; 3 uL; [4/3x] 1 uM AID/2.67 U/mL UDG
1b; Reagent; 3 uL; 2 U/mL UDG
1c; Reagent; 3 uL; 1 uM AID
2a; Compound; 46 nL; Follow-up plates (0.64 uM - 10 mM)
2b; Control; 46 nL; ATA ([…] - 10 mM)
3; Time; 10 min; incubation at room temperature
5; Time; 4 hr; incubation at room temperature
6; Reagent; 4 uL; [2x] 250 mM NaOH
7; Time; 15 sec; centrifuge at 1000 rpm
8; Time; 30 min; incubation at room temperature
9a; Detection; fluorescence (Read 1: AID); EnVision (PerkinElmer) plate reader, 540 excitation and 590 emission filters
9b; Detection; fluorescence (Read 2: UDG); EnVision (PerkinElmer) plate reader, 560 excitation and 665 emission filters
NOTES (numbers refer to sequence above)
1a; Reagents were dispensed in a medium-binding black solid-bottom Greiner plates (789176F) using a BioRptr liquid dispenser. Dispense 3 uL of [4/3x] 1 uM AID (provided by Kohli lab) and [4/3x] 2 U/mL UDG (NEB M0280L) into columns 1, 2, 5 to 48.
1b; Dispense 3 uL of [4/3x] 2 U/mL UDG into column 3.
1c; Dispense 3 uL of [4/3x] 1 uM AID into column 4.
2a; Compound (7-points [uM]: 0.64; 3.2; 16; 80; 400; 2,000; 10,000; […]) double pin-transferred (Dip Factor = 2) using the Kalypsys (Wako USA) pintool equipped with a 1536 pinhead for a final concentration range of 7.32 nM - 114 uM.
2b; 10 mM Aurintricarboxylic Acid (Sigma A1895) (ATA, 8-point, n = 2, 1:2.5 dilution in column 2) double pin-transferred (Dip Factor = 2) using the Kalypsys (Wako USA) pintool equipped with a 1536 pinhead for a [final] range of 186 nM - 114 uM.
3; Room temperature incubation.
4; Dispense 1 uL of substrate mixture from the Kohli lab [4x] […] DJC20 and [4x] 250 nM DJC23 into columns 1 to 48 .
5; Room temperature incubation.
6; Dispense 4 uL of substrate mixture [2x] 250 mM NaOH into columns 1 to 48.
7; Centrifugation step to remove bubbles.
8; Room temperature incubation
9a; Fluorescence signal (column label AID) was read using the EnVision plate reader. […]
In general terms: qHTS replaces the single test concentration by a dilution series.
As to `CCOc1ccc(NC(=O)CCS(=O)(=O)c2ccc(Br)cc2)cc1`, the activity change, negative = inhibition is inactive: 0.321%.
To `CCOc1ccc(Nc2c(S(=O)(=O)c3ccccc3)cnc3ccccc23)cc1` belongs inactive: -4.23%.
To `COc1ccc(-c2nc(Cn3c(SCc4ccc(F)cc4)nc4cccnc43)c(C)o2)cc1` belongs inactive: -5.08%; to `Cc1ccc2onc(CC(=O)N3CCN(c4cccc(C)c4C)CC3)c2c1`, inactive: -6.56%; to `COc1ccc(C(=O)Oc2ccc(C(c3c(C)[nH][nH]c3=O)c3c(C)[nH][nH]c3=O)cc2OC)cc1`, inactive: -3.7%.
To `CCc1c(C)nc2nc(-c3ccccc3)nn2c1NCc1ccc(C)cc1` belongs inactive: -0.843%; to `CCN(CC)CCNC(=O)c1ccc2c(=O)n3nc(Nc4ccccc4)sc3nc2c1`, inactive: 1.04%.
Consider `CCOc1ccc(CCNC(=O)c2ccc(Cn3c(=O)c4cccn4c4cccnc43)cc2)cc1`, for which the activity change, negative = inhibition was inactive: -15.4%.
To `Clc1ccc(-c2noc3ncnc(NCCCN4CCN(c5ccccc5)CC4)c23)cc1` belongs inactive: 1.77%.
To `CCc1ccccc1Nc1nn2c(=O)c3ccc(C(=O)NCc4cccs4)cc3nc2s1` belongs inactive: -7.73%.
To `CCOc1ccc(-c2nc(CSCC(=O)N3CCN(c4cccc(C(F)(F)F)c4)CC3)c(C)o2)cc1` belongs inactive: -17.8%; to `Clc1cccc(N2CCN(c3ncnc4c3nc3n4CCCCC3)CC2)c1`, inactive: -13.1%; to `CCc1ccc(NC(=O)c2cc(C(C)=O)n3ccccc23)cc1`, inactive: -4.94%.
On to `O=C1CCSC2(C(=O)N(Cc3ccc(F)cc3)c3ccccc32)N1c1cccc(F)c1` (stereo unspecified), for which the activity change, negative = inhibition is inactive: -6.62%.
To `Oc1ccc(NCc2ccc(OCc3ccccc3)cc2)cc1` belongs inactive: -8.5%; to `Cc1cc(C)c(NC(=O)Cn2c(=O)n(Cc3ccc(C(=O)NCc4ccc5c(c4)OCO5)cc3)c(=O)c3ccccc32)c(C)c1`, inactive: 4.18%; to `Cc1ccc2c(c1)-c1c(c(C(=O)N3CCN(c4cc(C)ccc4C)CC3)nn1C)CS2`, inactive: -6.29%.
To `Cc1ccc(NC(=O)c2oc3c(c2C)-c2[nH]ncc2CC3)c(Cl)c1` belongs inactive: -1.6%; to `Cn1cc(S(=O)(=O)N2CCCCCC2)cc1C(=O)N1CCN(c2cccc(C(F)(F)F)c2)CC1`, inactive: -3.09%.
To `Cc1cccc(C(=O)Nc2nc3nc(-c4ccccc4)cc(=O)n3[nH]2)c1` belongs inactive: 2.7%; to `CCN(CC)CCNC(=O)c1ccc2c(=O)n3nc(Nc4cccc(Cl)c4C)sc3nc2c1`, inactive: -22.4%; to `CCn1cc(C(=O)NCCCOC(C)C)c(=O)c2cc(S(=O)(=O)N(C)C3CCCCC3)ccc21`, inactive: -12%.
For the compound `COc1ccc(OC)c(/C=C(\C#N)c2nc3ccccc3c(=O)[nH]2)c1`, the activity change, negative = inhibition is inactive: -0.698%.
To `COc1ccccc1N1CCN(CCCNC(=O)c2cnn(-c3ccc(C)c(C)c3)c2C2CCN(C(=O)OC(C)(C)C)CC2)CC1` belongs inactive: -10.4%.
To `Cc1oc(-c2cccc(Cl)c2)nc1CSCC(=O)NCc1ccccc1Cl` belongs inactive: -2.08%.
To `CCCCN(C)CC(O)Cn1cc(/C=C/C(=O)c2ccc(C)cc2)c2ccccc21` (stereo unspecified) belongs inactive: -8.41%.
Turning to `COc1ccc(N2CCN(C(=O)c3sc4nc5n(c(=O)c4c3C)CCC5)CC2)cc1`, the activity change, negative = inhibition is inactive: -0.6%.
To `O=C(NCCn1cc(SCc2ccccc2F)c2ccccc21)c1cccs1` belongs inactive: -4.8%.
To `CCOC(=O)C1=C(CN2CCN(c3ccc(C)cc3C)CC2)NC(=O)NC1c1ccc(OC)cc1` (stereo unspecified) belongs inactive: -11.4%; to `Cc1ccc(-n2c(=O)c3oc4ccccc4c3n(Cc3cccc(F)c3)c2=O)cc1C`, inactive: 1.83%.
Regarding `COc1ccc(-c2cc(C(F)(F)F)nc(SCC(=O)N(C)Cc3ccccc3)n2)cc1`, the activity change, negative = inhibition is inactive: -8.02%.
To `Cc1cccc(CSc2ccc3nnc(CCNS(=O)(=O)c4ccccc4)n3n2)c1` belongs inactive: -0.143%; to `Cc1nn(C(=O)c2ccccc2)c(C)c1Sc1ccc(Cl)cc1`, inactive: -0.373%; to `Cc1ccc(C2=NN(CC(=O)NCCCN(CC(C)C)CC(C)C)C(=O)CC2)cc1`, inactive: -15.8%.
To `CCCN(CCC)CCNC(=O)c1cc2c(-c3ccc(Cl)cc3)nn(C)c2s1` belongs inactive: -0.229%.
To `CSc1cccc(NC(=O)CC(c2cccs2)N2Cc3ccccc3C2=O)c1` (stereo unspecified) belongs inactive: -5.93%; to `CCCCN(CCCC)CCNC(=O)c1cn(CC)c2ccc(S(=O)(=O)N3CCc4ccccc4C3)cc2c1=O`, inactive: -19.4%; to `Cc1ccc(C)c(CSc2ccc3nnc(CCNS(=O)(=O)c4ccccc4)n3n2)c1`, inactive: 3.13%.
Take `CC1CCCN(C(=O)c2cc3c(Cl)nc4ccccc4c3s2)C1` (stereo unspecified): the activity change, negative = inhibition is inactive: -4.27%.
In the case of `Cc1cccc(C)c1-n1ncc(C(=O)N2CCN(c3ccccc3)CC2)c1C1CCN(C(=O)OC(C)(C)C)CC1`, the activity change, negative = inhibition is inactive: -4.12%.
To `Cc1nc2nc(SCC(=O)NCc3ccccc3Cl)nn2c(C)c1Cc1ccccc1` belongs inactive: -2.93%.

The values above are taken from PubChem BioAssay AID1347431 (National Center for Advancing Translational Sciences (NCATS), 2020).
